Experimental data: PubChem BioAssay AID1224830 (NIAID, 2016)
Purpose: 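Regulators of TLR4 signalling towards TNF-alpha in macrophage-like cells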 (primary screen). Cells: human THP-1 monocytic leukaemia cells, TNF dual-luciferase reporter clone, PMA-differentiated to macrophage-like cells. Reagents: siRNA pool against human genes, 50 nM. Duration: LPS for 4 h, given about 3 days after siRNA transfection. Conditions: bacterial LPS (TLR4 ligand), 10 ng/ml. Measured: 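Ratio of firefly to renilla light, scaled to the plate median and expressed as a robust z-score per replicate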. Direction: TNF reporter robust z-score: higher = stronger TNF reporter response to LPS. Call rule: 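a well is active when its z-score exceeds 2.8 or falls below -1.5; control wells carry no call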.
This is a random part of about 18,000 deposited reagents. About 2,900 of them (16%) were called active. 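Calls are made per well; low scores hint the gene aids the LPS response, high scores that it dampens it.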 Repeated entries: four replicate wells of each siRNA pool.

no.	gene symbol	TNF reporter robust z-score	call
1	EVI2A	-0.16	inactive
2	EVI2A	-0.01	inactive
3	EVI2A	-1.39	inactive
4	EVI2A	-0.17	inactive
5	NUP107	0.75	inactive
6	NUP107	-0.13	inactive
7	NUP107	1.97	inactive
8	NUP107	-0.6	inactive
9	CPSF6	-0.3	inactive
10	CPSF6	0.26	inactive
11	CPSF6	-0.67	inactive
12	CPSF6	-0.09	inactive
13	KLRB1	0.44	inactive
14	KLRB1	0.74	inactive
15	KLRB1	-0.45	inactive
16	KLRB1	1.46	inactive
17	SUGT1P4-STRA6LP-CCDC180	-0.37	inactive
18	SUGT1P4-STRA6LP-CCDC180	-0.01	inactive
19	SUGT1P4-STRA6LP-CCDC180	0.04	inactive
20	SUGT1P4-STRA6LP-CCDC180	2.54	inactive
21	SMIM21	1.34	inactive
22	SMIM21	0.82	inactive
23	SMIM21	-0.16	inactive
24	CR2	1.12	inactive
25	CR2	2.5	inactive
26	CR2	-0.63	inactive
27	CR2	0.87	inactive
28	POLB	-1.03	inactive
29	POLB	-0.64	inactive
30	POLB	-0.71	inactive
31	ARSK	1.27	inactive
32	ARSK	1.46	inactive
33	ARSK	1.72	inactive
34	ARSK	1.74	inactive
35	B3GALT6	0.56	inactive
36	B3GALT6	1.01	inactive
37	B3GALT6	-0.8	inactive
38	B3GALT6	1.88	inactive
39	CLEC9A	-0.24	inactive
40	CLEC9A	-0.23	inactive
41	CLEC9A	-0.32	inactive
42	CLEC9A	0.61	inactive
43	HSPB6	0.43	inactive
44	HSPB6	1.62	inactive
45	HSPB6	1.87	inactive
46	HSPB6	0.46	inactive

6 successive records from above, quoted:
no.	gene symbol	TNF reporter robust z-score	call
17	SUGT1P4-STRA6LP-CCDC180	-0.37	inactive
18	SUGT1P4-STRA6LP-CCDC180	-0.01	inactive
19	SUGT1P4-STRA6LP-CCDC180	0.04	inactive
20	SUGT1P4-STRA6LP-CCDC180	2.54	inactive
21	SMIM21	1.34	inactive
22	SMIM21	0.82	inactive
